The text below walks through data of the supplement of paper PMC6411743.

Sequences of proteins named here, by UniProt entry; tags and fusion partners are left off. A change or cut given only in a name is not applied to a line headed by its entry.
UniProt Q5JPI9: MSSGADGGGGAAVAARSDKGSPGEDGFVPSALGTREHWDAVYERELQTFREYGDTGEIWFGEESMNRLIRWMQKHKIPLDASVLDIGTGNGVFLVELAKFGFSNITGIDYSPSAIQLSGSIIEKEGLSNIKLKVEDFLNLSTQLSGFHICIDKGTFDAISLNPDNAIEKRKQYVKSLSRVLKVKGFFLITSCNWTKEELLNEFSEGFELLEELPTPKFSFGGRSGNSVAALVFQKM
UniProt Q14241: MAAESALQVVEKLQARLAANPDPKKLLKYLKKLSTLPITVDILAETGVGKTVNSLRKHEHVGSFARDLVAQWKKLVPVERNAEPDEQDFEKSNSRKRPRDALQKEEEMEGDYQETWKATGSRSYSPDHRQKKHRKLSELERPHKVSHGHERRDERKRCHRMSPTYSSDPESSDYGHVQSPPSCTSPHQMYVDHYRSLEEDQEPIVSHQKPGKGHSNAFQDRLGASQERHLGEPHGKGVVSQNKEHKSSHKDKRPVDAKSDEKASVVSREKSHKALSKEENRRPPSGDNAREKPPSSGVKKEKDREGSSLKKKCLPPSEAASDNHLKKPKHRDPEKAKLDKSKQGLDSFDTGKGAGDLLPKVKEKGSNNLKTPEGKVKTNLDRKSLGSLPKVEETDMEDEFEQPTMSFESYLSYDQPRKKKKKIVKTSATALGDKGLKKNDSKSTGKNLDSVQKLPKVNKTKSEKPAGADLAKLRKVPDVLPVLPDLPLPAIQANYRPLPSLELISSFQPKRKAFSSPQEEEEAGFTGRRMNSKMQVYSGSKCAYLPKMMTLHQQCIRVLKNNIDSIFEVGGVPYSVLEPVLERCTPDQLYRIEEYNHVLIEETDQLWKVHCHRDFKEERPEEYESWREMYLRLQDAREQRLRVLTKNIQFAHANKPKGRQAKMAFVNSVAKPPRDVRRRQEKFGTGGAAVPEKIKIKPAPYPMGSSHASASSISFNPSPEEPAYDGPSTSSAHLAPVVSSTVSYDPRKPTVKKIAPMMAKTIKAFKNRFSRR
UniProt Q9H0U3: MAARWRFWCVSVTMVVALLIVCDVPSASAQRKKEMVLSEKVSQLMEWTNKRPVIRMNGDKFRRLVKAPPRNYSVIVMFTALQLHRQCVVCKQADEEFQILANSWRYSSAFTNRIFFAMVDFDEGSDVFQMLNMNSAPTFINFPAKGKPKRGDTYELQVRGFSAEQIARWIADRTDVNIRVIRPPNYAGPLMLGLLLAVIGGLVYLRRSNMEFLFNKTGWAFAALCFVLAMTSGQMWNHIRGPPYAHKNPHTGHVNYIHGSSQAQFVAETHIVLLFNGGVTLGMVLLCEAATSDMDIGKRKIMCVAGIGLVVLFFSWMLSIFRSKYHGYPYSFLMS
UniProt Q96A57: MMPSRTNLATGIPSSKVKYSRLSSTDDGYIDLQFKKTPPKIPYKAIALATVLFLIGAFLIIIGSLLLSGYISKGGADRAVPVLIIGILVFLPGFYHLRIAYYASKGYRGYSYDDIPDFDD
UniProt Q9Y3E1: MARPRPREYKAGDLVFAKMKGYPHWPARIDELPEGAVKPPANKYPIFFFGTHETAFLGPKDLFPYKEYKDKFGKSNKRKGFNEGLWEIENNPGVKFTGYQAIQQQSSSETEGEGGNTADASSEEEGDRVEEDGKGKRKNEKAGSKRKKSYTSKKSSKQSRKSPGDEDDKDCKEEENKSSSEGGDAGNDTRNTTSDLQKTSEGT
UniProt Q969K3: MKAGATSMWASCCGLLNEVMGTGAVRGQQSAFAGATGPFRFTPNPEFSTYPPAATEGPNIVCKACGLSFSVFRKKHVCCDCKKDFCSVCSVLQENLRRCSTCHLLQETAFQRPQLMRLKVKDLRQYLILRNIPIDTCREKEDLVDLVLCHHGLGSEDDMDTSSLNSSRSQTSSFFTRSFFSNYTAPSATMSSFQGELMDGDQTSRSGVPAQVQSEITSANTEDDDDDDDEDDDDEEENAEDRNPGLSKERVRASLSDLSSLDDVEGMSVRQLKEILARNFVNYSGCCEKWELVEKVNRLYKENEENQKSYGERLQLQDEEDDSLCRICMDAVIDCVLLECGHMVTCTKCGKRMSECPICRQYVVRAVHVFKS
UniProt Q9Y5U8: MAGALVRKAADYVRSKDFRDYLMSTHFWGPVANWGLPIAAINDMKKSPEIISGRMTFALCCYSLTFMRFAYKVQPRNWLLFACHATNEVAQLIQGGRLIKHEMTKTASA
UniProt Q99417: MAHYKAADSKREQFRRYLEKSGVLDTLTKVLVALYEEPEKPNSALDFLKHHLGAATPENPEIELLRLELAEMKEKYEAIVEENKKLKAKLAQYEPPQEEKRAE
UniProt P47974: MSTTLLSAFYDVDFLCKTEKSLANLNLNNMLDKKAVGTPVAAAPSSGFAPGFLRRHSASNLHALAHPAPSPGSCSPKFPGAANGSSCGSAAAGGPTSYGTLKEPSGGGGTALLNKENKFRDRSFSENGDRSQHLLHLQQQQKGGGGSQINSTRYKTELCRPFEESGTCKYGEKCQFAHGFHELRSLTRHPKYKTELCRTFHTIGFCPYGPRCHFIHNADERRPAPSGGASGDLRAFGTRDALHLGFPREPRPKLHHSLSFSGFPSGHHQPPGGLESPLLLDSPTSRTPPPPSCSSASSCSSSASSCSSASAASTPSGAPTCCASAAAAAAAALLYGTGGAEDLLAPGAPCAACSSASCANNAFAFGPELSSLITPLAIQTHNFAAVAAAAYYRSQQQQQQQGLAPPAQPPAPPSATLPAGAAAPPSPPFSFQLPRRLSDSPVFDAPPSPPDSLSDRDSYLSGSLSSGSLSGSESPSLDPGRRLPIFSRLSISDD
UniProt Q6DD87: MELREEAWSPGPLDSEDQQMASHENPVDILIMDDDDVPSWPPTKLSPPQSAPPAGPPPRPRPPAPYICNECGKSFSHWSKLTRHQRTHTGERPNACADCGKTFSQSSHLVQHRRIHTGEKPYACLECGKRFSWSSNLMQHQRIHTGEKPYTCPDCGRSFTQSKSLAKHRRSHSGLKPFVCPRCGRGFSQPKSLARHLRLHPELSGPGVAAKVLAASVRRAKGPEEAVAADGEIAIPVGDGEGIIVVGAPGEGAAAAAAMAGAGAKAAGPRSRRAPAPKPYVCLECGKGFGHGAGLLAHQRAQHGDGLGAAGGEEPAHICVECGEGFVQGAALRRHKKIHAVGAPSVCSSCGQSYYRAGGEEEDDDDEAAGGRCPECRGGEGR
UniProt P36969, whole entry: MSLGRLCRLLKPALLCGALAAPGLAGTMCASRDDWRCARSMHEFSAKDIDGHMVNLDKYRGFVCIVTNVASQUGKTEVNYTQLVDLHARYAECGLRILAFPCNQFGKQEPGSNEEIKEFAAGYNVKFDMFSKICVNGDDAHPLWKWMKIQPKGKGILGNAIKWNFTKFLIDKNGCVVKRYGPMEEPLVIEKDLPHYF
UniProt Q9Y371: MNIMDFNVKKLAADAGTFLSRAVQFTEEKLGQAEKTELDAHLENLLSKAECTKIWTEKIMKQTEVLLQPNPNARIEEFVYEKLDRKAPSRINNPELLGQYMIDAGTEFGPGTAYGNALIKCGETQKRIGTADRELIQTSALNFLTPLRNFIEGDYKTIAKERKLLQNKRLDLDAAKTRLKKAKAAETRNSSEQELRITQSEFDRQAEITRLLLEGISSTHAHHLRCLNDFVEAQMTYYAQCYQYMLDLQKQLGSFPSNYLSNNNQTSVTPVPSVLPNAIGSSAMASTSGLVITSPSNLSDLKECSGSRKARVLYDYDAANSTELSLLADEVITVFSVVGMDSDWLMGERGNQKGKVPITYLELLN
UniProt O75503: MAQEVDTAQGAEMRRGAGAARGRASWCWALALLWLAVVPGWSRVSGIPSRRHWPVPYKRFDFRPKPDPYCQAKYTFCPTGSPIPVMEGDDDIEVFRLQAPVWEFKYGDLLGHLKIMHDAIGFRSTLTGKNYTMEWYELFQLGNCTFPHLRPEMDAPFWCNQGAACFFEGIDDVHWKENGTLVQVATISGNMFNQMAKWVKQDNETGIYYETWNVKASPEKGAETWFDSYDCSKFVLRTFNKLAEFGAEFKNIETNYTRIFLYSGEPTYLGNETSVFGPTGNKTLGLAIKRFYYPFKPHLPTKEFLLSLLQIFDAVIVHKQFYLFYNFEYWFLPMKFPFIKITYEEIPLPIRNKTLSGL
UniProt Q70IA6: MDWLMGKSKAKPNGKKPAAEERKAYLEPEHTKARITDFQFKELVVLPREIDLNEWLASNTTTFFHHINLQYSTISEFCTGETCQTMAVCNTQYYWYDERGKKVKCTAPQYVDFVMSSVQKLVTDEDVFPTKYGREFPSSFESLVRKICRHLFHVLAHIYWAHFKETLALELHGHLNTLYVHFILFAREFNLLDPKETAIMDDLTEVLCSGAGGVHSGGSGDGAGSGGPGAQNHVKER
UniProt Q8WYA6: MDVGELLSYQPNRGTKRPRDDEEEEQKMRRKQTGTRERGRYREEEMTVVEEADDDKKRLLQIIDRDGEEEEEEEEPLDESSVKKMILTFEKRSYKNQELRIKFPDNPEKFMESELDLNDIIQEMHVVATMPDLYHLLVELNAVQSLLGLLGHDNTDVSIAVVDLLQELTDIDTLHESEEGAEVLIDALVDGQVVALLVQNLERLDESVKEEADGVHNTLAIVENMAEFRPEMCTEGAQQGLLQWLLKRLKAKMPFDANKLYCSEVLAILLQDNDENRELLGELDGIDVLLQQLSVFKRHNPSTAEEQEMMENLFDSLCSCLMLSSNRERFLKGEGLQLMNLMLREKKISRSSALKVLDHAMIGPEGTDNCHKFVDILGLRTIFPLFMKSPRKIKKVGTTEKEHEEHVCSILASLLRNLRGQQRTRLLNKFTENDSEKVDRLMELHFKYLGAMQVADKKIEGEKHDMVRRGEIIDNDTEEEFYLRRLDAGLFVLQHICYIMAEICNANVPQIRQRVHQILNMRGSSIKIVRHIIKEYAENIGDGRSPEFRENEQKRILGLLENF
UniProt O00512: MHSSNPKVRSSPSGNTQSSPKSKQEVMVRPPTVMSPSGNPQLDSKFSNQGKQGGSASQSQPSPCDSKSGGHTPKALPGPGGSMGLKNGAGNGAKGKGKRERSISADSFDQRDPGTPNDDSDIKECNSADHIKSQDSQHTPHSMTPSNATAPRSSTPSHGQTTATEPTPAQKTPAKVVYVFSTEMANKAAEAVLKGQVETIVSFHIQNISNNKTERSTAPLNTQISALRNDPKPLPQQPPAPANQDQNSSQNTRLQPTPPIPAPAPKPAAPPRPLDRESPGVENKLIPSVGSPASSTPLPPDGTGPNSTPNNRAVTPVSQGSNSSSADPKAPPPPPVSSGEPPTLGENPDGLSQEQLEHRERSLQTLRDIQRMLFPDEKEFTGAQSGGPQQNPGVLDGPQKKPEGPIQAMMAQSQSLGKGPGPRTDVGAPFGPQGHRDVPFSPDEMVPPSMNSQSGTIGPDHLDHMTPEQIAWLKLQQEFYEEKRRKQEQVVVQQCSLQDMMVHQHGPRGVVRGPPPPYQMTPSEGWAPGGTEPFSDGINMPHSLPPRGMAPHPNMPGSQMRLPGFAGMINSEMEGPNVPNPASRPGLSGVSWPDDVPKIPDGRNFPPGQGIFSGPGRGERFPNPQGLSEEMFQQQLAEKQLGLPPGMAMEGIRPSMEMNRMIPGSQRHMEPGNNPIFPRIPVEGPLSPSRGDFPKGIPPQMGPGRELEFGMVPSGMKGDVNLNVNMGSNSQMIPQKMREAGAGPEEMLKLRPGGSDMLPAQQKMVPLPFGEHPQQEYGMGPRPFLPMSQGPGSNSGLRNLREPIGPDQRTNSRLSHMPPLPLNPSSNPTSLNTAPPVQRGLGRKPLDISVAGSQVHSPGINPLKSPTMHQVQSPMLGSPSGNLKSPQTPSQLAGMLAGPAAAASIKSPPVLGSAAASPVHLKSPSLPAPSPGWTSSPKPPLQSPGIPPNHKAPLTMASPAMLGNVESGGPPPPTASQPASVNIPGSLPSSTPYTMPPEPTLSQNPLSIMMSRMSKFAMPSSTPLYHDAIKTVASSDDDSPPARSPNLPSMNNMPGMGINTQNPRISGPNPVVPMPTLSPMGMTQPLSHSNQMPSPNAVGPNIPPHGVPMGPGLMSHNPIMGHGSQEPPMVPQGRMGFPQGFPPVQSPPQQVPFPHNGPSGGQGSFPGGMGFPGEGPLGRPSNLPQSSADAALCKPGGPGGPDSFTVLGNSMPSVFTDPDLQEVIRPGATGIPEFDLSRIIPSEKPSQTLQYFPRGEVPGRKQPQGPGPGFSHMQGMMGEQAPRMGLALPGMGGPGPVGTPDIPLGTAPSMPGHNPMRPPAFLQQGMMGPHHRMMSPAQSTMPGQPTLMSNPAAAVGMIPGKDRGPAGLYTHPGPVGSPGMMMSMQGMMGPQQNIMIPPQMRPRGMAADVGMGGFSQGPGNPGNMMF
UniProt P49720: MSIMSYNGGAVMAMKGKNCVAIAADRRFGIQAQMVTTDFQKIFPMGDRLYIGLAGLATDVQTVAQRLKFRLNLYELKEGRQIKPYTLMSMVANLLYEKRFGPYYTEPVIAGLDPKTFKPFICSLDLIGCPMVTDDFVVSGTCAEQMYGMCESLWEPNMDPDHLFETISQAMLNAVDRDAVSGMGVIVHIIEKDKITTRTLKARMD

± gives the standard deviation of the averaged measurements. This is a selection; strong and weak results do not stand in their true shares. Small differences around the control level are noise.

Compound in this test: Nc1ncnc2c1ncn2[C@@H]1O[C@H](COP(=O)(O)OP(=O)(O)NP(=O)(O)O)[C@@H](O)[C@H]1O [adenylyl imidodiphosphate]
Put plainly: NP40-soluble protein abundance relative to vehicle (solubility fold change) (ratio); higher = more soluble protein in presence of AMP-PNP. The note with it: concentration: 0.5mM. The essentials: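 Jurkat crude lysate prepared with a Dounce homogeniser was treated at eight concentrations spanning 0.1 to 10 mM, 10 min at room temperature then 3 min at 37 °C. Solubilisation with 0.8% NP40 and benzonase and ultracentrifugation preceded TMT labelling of the supernatant for LC-MS/MS. Fold change against the detergent-processed vehicle was determined per replicate from vsn-normalised intensities, across three independent experiments.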
A0A087WUI1|Q9Y388 (UniProt Q9Y388): the NP40-soluble protein abundance was determined as 1.05 ± 0.028. For “A0A087WVA8|Q8IWB9 and related entries (UniProt Q8IWB9)”, the NP40-soluble protein abundance turned out to be 0.988 ± 0.048. In the case of A0A087WVN1|Q5JPI9 (UniProt Q5JPI9), the NP40-soluble protein abundance stood at 0.9952 ± 0.0068. On to “A0A087WT44|P30519 and related entries (UniProt P30519)”, for which the NP40-soluble protein abundance was 0.993 ± 0.024. The result for A0A087WUT6|O60841 (UniProt O60841) reads 1.01 ± 0.019; that for A0A087WT30|Q8N5I9 (UniProt Q8N5I9), 1.19 ± 0.065; that for A0A024RAC6 (UniProt Q14241), 1.02 ± 0.051. Regarding A0A087WU53|Q9H0U3 (UniProt Q9H0U3), the NP40-soluble protein abundance worked out at 0.987 ± 0.061.

Consider “A0A087WTT2|Q5JWB9 and related entries (UniProt Q96A57)”, for which the NP40-soluble protein abundance stood at 1.04 ± 0.024. The value for “A0A024R4K9|A0A087WZA9|A0A087X266|Q9BXJ8 and related entries (UniProt Q9BXJ8)” was 1.014 ± 0.0026; that for A0A024QZP7|P06493 (UniProt P06493) was 1.03 ± 0.017.

As for A0A024R216|Q9Y3E1 (UniProt Q9Y3E1), the NP40-soluble protein abundance came to 0.995 ± 0.038. Regarding “A0A087WTM5|H7BYJ1 and related entries (UniProt Q969K3)”, the NP40-soluble protein abundance was 0.942 ± 0.05. On to A0A087WVZ0|Q9Y5U8 (UniProt Q9Y5U8), for which the NP40-soluble protein abundance is 1 ± 0.013. Turning to A0A087WV05|Q99417 (UniProt Q99417), the NP40-soluble protein abundance amounted to 0.972 ± 0.063. The value for A0A075B6F9|Q9Y314 (UniProt Q9Y314) was 1.01 ± 0.02. The result for A0A087WUU9|P47974 (UniProt P47974) reads 0.998 ± 0.03; that for A0A087WUD1|Q6DD87 (UniProt Q6DD87), 1 ± 0.039. In the case of “A0A087WT12|A0A087X2I2|K7ERP4 and related entries (UniProt P36969)”, the NP40-soluble protein abundance was 0.998 ± 0.055. Consider “A0A087WW40|Q9Y371 and related entries (UniProt Q9Y371)”, for which the NP40-soluble protein abundance was found to be 1.02 ± 0.029. The result for “A0A087WV73|P46087 and related entries (UniProt P46087)” reads 1.04 ± 0.05; that for “A0A024R4Q5|G5E9B5 and related entries (UniProt P0C1Z6)”, 0.981 ± 0.065; that for “A0A087WU62|A0A087X2D5|A0A0G2JMS5|Q9BRJ2 (UniProt Q9BRJ2)”, 0.988 ± 0.082. For A0A087WUL0|Q3LXA3 (UniProt Q3LXA3), the NP40-soluble protein abundance was found to be 0.993 ± 0.022. For A0A024R644|O75503 (UniProt O75503), the NP40-soluble protein abundance was determined as 1.036 ± 0.0081.

In the case of “A0A087WVS8|Q70IA6 and related entries (UniProt Q70IA6)”, the NP40-soluble protein abundance stood at 0.969 ± 0.055.

As to A0A087WUB9|Q8WYA6 (UniProt Q8WYA6), the NP40-soluble protein abundance amounted to 1.02 ± 0.032. The value for “A0A087WUW5|A0A0U1RRM4|A6NLN1 and related entries (UniProt P26599)” was 1.02 ± 0.028; that for A0A087WT20|Q9NV06 (UniProt Q9NV06) was 0.9452 ± 0.0036; that for A0A087WTX2|Q92504 (UniProt Q92504) was 0.992 ± 0.018. On to A0A075B746|P82921 (UniProt P82921), for which the NP40-soluble protein abundance was determined as 1.02 ± 0.023. With “A0A087WUP3|F8WBY6 and related entries (UniProt Q8N3Z3)”, the NP40-soluble protein abundance stood at 0.981 ± 0.019. The value for A0A024R4M0|P46781 (UniProt P46781) was 1.04 ± 0.13; that for A0A087WVU5|O00512 (UniProt O00512) was 0.983 ± 0.035. The value for “A0A087WTU9|A0A087WZY3|Q8TCU4 and related entries (UniProt Q8TCU4)” was 1 ± 0.079; that for A0A087WUL2|P49720 (UniProt P49720) was 1.03 ± 0.11. The result for A0A087WW06|Q96AY4 (UniProt Q96AY4) reads 0.99 ± 0.026.
